Test results taken from the supplement of paper PMC8728848.
The list shows a part of the results.

Assays:
Assay in all cases: glycan array binding signal (z-score within array); higher = stronger binding
Conditions in all cases: glycan notation: IUPAC condensed, linker removed
[1] = target: Gal(b1-4)GlcNAc(b1-3)Gal(b1-4)GlcNAc(b1-3)[Gal(b1-4)GlcNAc(b1-3)Gal(b1-4)GlcNAc(b1-6)]GalNAc
Outline: (§1)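 Glycan array data were curated from 3228 arrays in the Consortium for Functional Glycomics database and kept only where the protein sequence was available. Glycan names were converted to IUPAC-condensed notation, and columns mapping to the same glycan were averaged. The binding signal is a within-array Z-score, averaged across arrays of the same protein sequence at different concentrations or buffers and across linkers. Negative Z-scores can be read as non-binding.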

[2] = target: Gal(b1-4)GlcNAc(b1-3)Gal(b1-4)GlcNAc(b1-6)[Gal(b1-3)]GalNAc
Outline: as §1

[3] = target: Gal(b1-4)GlcNAc(b1-3)Gal(b1-4)[Fuc(a1-3)]GlcNAc(b1-3)Gal(b1-4)[Fuc(a1-3)]GlcNAc
Outline: as §1

[4] = target: Gal(b1-4)GlcNAc(b1-3)GalNAc
Outline: as §1

[5] = target: Gal(b1-4)GlcNAc(b1-3)[Fuc(a1-3)GlcNAc(b1-6)]Gal(b1-4)Glc
Outline: as §1

[6] = target: Gal(b1-4)GlcNAc(b1-3)[Gal(b1-4)GlcNAc(b1-6)]Gal(b1-4)GlcNAc
Outline: as §1

[7] = target: Gal(b1-4)GlcNAc(b1-3)[GlcNAc(b1-6)]Gal(b1-4)GlcNAc
Outline: as §1

[8] = target: Gal(b1-4)GlcNAc(b1-6)Gal(b1-4)GlcNAc
Outline: as §1

[9] = target: Gal(b1-4)GlcNAc(b1-6)GalNAc
Outline: as §1

[10] = target: Gal(b1-4)GlcNAc(b1-6)[Gal(b1-3)]GalNAc
Outline: as §1

[11] = target: Gal(b1-4)GlcNAc(b1-6)[Gal(b1-4)GlcNAc(b1-3)]GalNAc
Outline: as §1

[12] = target: Gal(b1-4)GlcNAc6P
Outline: as §1

[13] = target: Gal(b1-6)Gal
Outline: as §1

[14] = target: Gal3S(b1-3)GalNAc
Outline: as §1

[15] = target: Gal3S(b1-3)GlcNAc
Outline: as §1

[16] = target: Gal3S(b1-3)[Fuc(a1-4)]GlcNAc
Outline: as §1

[17] = target: Gal3S(b1-4)Glc
Outline: as §1

[18] = target: Gal3S(b1-4)Glc6S
Outline: as §1

[19] = target: Gal3S(b1-4)GlcNAc
Outline: as §1

[20] = target: Gal3S(b1-4)[Fuc(a1-3)]Glc6S
Outline: as §1

[21] = target: Gal3S(b1-4)[Fuc(a1-3)]GlcNAc
Outline: as §1

[22] = target: Gal3S(b1-4)[Fuc(a1-3)]GlcNAc6S
Outline: as §1

[23] = target: Gal3S4S(b1-4)GlcNAc
Outline: as §1

[24] = target: Gal3S6S(b1-4)GlcNAc
Outline: as §1

[25] = target: Gal3S6S(b1-4)GlcNAc6S
Outline: as §1

[26] = target: Gal4S(b1-4)GlcNAc
Outline: as §1

[27] = target: Gal4S6S(b1-4)GlcNAc
Outline: as §1

[28] = target: Gal6P(b1-4)GlcNAc
Outline: as §1

[29] = target: Gal6S(b1-3)GlcNAc
Outline: as §1

[30] = target: Gal6S(b1-3)GlcNAc6S
Outline: as §1

[31] = target: Gal6S(b1-4)Glc
Outline: as §1

[32] = target: Gal6S(b1-4)Glc6S
Outline: as §1

[33] = target: Gal6S(b1-4)GlcNAc
Outline: as §1

[34] = target: Gal6S(b1-4)GlcNAc6S
Outline: as §1

[35] = target: GalNAc(a1-3)Gal
Outline: as §1

[36] = target: GalNAc(a1-3)GalNAc
Outline: as §1

[37] = target: GalNAc(a1-3)GalNAc(b1-3)Gal(a1-4)Gal(b1-4)Glc
Outline: as §1

[38] = target: GalNAc(a1-3)GalNAc(b1-3)Gal(a1-4)Gal(b1-4)GlcNAc
Outline: as §1

[39] = target: GalNAc(b1-3)Gal
Outline: as §1

[40] = target: GalNAc(b1-3)Gal(a1-4)Gal(b1-4)GlcNAc
Outline: as §1

[41] = target: GalNAc(b1-3)Gal(a1-4)Gal(b1-4)GlcNAc(b1-3)Gal(b1-4)Glc
Outline: as §1

[42] = target: GalNAc(b1-3)Gal(a1-6)Gal(b1-4)Glc
Outline: as §1

[43] = target: GalNAc(b1-3)GalNAc
Outline: as §1

[44] = target: GalNAc(b1-3)GlcNAc
Outline: as §1

[45] = target: GalNAc(b1-4)Gal(b1-4)Glc
Outline: as §1

B1: CBP21 (Serratia marcescens), O83009 (protein)
chain: MNKTSRTLLSLGLLSAAMFGVSQQANAHGYVESPASRAYQCKLQLNTQCGSVQYEPQSVEGLKGFPQAGPADGHIASADKSTFFELDQQTPTRWNKLNLKTGPNSFTWKLTARHSTTSWRYFITKPNWDASQPLTRASFDLTPFCQFNDGGAIPAAQVTHQCNIPADRSGSHVILAVWDIADTANAFYQAIDVNLSK
- glycan array binding signal (z-score) [1]: 0.917
- glycan array binding signal (z-score) [2]: 0.071
- glycan array binding signal (z-score) [3]: -0.565
- glycan array binding signal (z-score) [4]: 0.076
- glycan array binding signal (z-score) [5]: 0.366
- glycan array binding signal (z-score) [6]: 0.23
- glycan array binding signal (z-score) [7]: 2.17
- glycan array binding signal (z-score) [8]: -1.25
- glycan array binding signal (z-score) [9]: 0.422
- glycan array binding signal (z-score) [10]: 0.712
- glycan array binding signal (z-score) [11]: 0.317
- glycan array binding signal (z-score) [12]: -0.389
- glycan array binding signal (z-score) [13]: -0.589
- glycan array binding signal (z-score) [14]: 0.639
- glycan array binding signal (z-score) [15]: -0.204
- glycan array binding signal (z-score) [16]: 0.337
- glycan array binding signal (z-score) [17]: -0.647
- glycan array binding signal (z-score) [18]: -0.559
- glycan array binding signal (z-score) [19]: 1.21
- glycan array binding signal (z-score) [20]: 0.416
- glycan array binding signal (z-score) [21]: 0.872
- glycan array binding signal (z-score) [22]: 0.76
- glycan array binding signal (z-score) [23]: 0.715
- glycan array binding signal (z-score) [24]: 0.23
- glycan array binding signal (z-score) [25]: -0.494
- glycan array binding signal (z-score) [26]: -1.04
- glycan array binding signal (z-score) [27]: 0.197
- glycan array binding signal (z-score) [28]: 1.34
- glycan array binding signal (z-score) [29]: 0.882
- glycan array binding signal (z-score) [30]: 0.326
- glycan array binding signal (z-score) [31]: -0.3
- glycan array binding signal (z-score) [32]: -0.747
- glycan array binding signal (z-score) [33]: -1.16
- glycan array binding signal (z-score) [34]: 0.369
- glycan array binding signal (z-score) [35]: 0.687
- glycan array binding signal (z-score) [36]: -0.263
- glycan array binding signal (z-score) [37]: -1.73
- glycan array binding signal (z-score) [38]: 1.85
- glycan array binding signal (z-score) [39]: 1.39
- glycan array binding signal (z-score) [40]: -0.307
- glycan array binding signal (z-score) [41]: -0.455
- glycan array binding signal (z-score) [42]: 0.058
- glycan array binding signal (z-score) [43]: -0.453
- glycan array binding signal (z-score) [44]: -0.162
- glycan array binding signal (z-score) [45]: 1.03
